Data as given in PubChem BioAssay AID1259308 (NCATS, 2017).
Test: 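Genes whose loss raises luciferase production in HEK293 cells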 (primary screen). System: human HEK293 embryonic kidney cells stably expressing firefly luciferase (HEK-CMV-Luc2-Hygro). Knock-down reagent: single siRNA against human genes, 0.8 pmol siRNA per well. Duration: 72 h. Read-out: 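Reporter luminescence and viable-cell signal on separate replicate plates, given as percent of non-targeting control and median/MAD z-scores, plus per-cell luciferase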. Direction: total luciferase, z-score: higher = more reporter protein produced. Call rule: 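Active when the median/MAD z-score for overall luciferase is greater than 3; a gene was taken forward for validation with new siRNAs if at least two of its three siRNAs passed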. Meaning of the calls: active = raised luciferase; inactive = no rise.
In all, the deposit lists about 59,000 reagents; this is an unselected part. About 1,510 of all reagents (2.6%) count as active. 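Calls use total luciferase alone and ignore viability, so some active siRNAs may act by altering cell number.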 Unmarked entries are inactive. Reagents against one gene are numbered here. Not all columns of the deposit are shown. Reagent sequences are not shown.

Knock-down of TNPO1 #1 came out at: total luciferase, z-score 1.51.
After knock-down of TNPO1 #2, the screen gave total luciferase, z-score -0.71.
After knock-down of TNPO1 #3 the results were total luciferase, z-score -0.269.
Against GEMIN4 #1, the entry reads total luciferase, z-score -1.11.
GEMIN4 #2 gave total luciferase, z-score -0.946.
Silencing of GEMIN4 #3 gave: total luciferase, z-score 0.602.
After knock-down of TONSL #1 the results were total luciferase, z-score 0.212.
With knock-down of TONSL #2 the results were total luciferase, z-score -2.08.
For TONSL #3, the entry reads total luciferase, z-score 1.85.
WBP2P1 #1 scored total luciferase, z-score 0.111.
For WBP2P1 #2, the values are total luciferase, z-score 1.31.
Silencing of WBP2P1 #3 resulted in: total luciferase, z-score 0.517.
PHOX2B #1 showed total luciferase, z-score 0.209.
PHOX2B #2 scored total luciferase, z-score -0.161.
PHOX2B #3 scored total luciferase, z-score 0.569.
Knock-down of CDK11B #1 gave: total luciferase, z-score 1.04.
Against CDK11B #2, the values are total luciferase, z-score 1.51.
Silencing of CDK11B #3 resulted in: total luciferase, z-score -0.403.
Knock-down of GRWD1 #1 came out at: total luciferase, z-score 0.645.
Depletion of GRWD1 #2 gave: total luciferase, z-score 0.921.
GRWD1 #3 showed total luciferase, z-score -0.549.
Silencing of UFC1 #1 came out at: total luciferase, z-score -0.752.
After knock-down of UFC1 #2, the record shows total luciferase, z-score -0.255.
Knock-down of UFC1 #3 gave: total luciferase, z-score 2.94.
With knock-down of NR2F2 #1, the screen gave total luciferase, z-score 0.393.
Depletion of NR2F2 #2 gave: total luciferase, z-score 0.0216.
Depletion of NR2F2 #3 resulted in: total luciferase, z-score 1.31.
Knock-down of AP1B1 #1 gave: total luciferase, z-score 0.73.
AP1B1 #2 showed total luciferase, z-score -0.965.
After knock-down of AP1B1 #3 the results were total luciferase, z-score 0.603.
OASL #1 showed total luciferase, z-score -0.194.
OASL #2 gave total luciferase, z-score 1.8.
For OASL #3, the entry reads total luciferase, z-score -0.267.
C3orf85 #1 gave total luciferase, z-score -0.725.
Knock-down of C3orf85 #2 came out at: total luciferase, z-score -0.507.
Against C3orf85 #3, the values are total luciferase, z-score -1.1.
CAPN10 #1 showed total luciferase, z-score -0.386.
For CAPN10 #2 the deposit lists total luciferase, z-score -2.69.
Depletion of CAPN10 #3 came out at: total luciferase, z-score -1.73.
Depletion of LINC01704 #1 came out at: total luciferase, z-score 0.309.
Silencing of LINC01704 #2 gave: total luciferase, z-score -0.712.
Depletion of LINC01704 #3 gave: total luciferase, z-score 1.01.
